# Test results from the supplement of paper PMC8728848.
# The list shows a part of the results.
# B1: Eosinophil-derived neurotoxin (EDN) (Homo sapiens), P10153 (protein)
# chain: MVPKLFTSQICLLLLLGLLAVEGSLHVKPPQFTWAQWFETQHINMTSQQCTNAMQVINNYQRRCKNQNTFLLTTFANVVNVCGNPNMTCPSNKTRKNCHHSGSQVPLIHCNLTTPSPQNISNCRYAQTPANMFYIVACDNRDQRRDPPQYPVVPVHLDRII
# Experiments:
# Assay in all cases: glycan array binding signal (z-score within array); higher = stronger binding
# Details in all cases: glycan notation: IUPAC condensed, linker removed
# [1] = biological target: Gal(b1-3)Gal(b1-4)GlcNAc(b1-2)Man(a1-3)[Gal(b1-3)Gal(b1-4)GlcNAc(b1-2)Man(a1-6)]Man(b1-4)GlcNAc(b1-4)GlcNAc
# Summary of the method: (§1)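 The Consortium for Functional Glycomics database supplied 3228 glycan arrays, of which those lacking an available protein sequence were dropped. The binding signal, a within-array Z-score, was averaged across arrays of the same protein sequence and across linkers. Negative scores can be read as non-binding.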
# Gal(b1-3)GalNAc = biological target: Gal(b1-3)GalNAc
# Summary of the method: as §1
# [2] = biological target: Gal(b1-3)GalNAc(a1-3)[Fuc(a1-2)]Gal(b1-4)Glc
# Summary of the method: as §1
# [3] = biological target: Gal(b1-3)GalNAc(a1-3)[Fuc(a1-2)]Gal(b1-4)GlcNAc
# Summary of the method: as §1
# [4] = biological target: Gal(b1-3)GalNAc(b1-3)Gal(a1-4)Gal(b1-4)Glc
# Summary of the method: as §1
# [5] = biological target: Gal(b1-3)GalNAc(b1-4)Gal(b1-4)Glc
# Summary of the method: as §1
# [6] = biological target: Gal(b1-3)GalNAc(b1-4)[Neu5Ac(a2-3)]Gal(b1-4)Glc
# Summary of the method: as §1
# Gal(b1-3)GlcNAc = biological target: Gal(b1-3)GlcNAc
# Summary of the method: as §1
# [7] = biological target: Gal(b1-3)GlcNAc(a1-6)Gal(b1-4)GlcNAc
# Summary of the method: as §1
# [8] = biological target: Gal(b1-3)GlcNAc(b1-2)Man(a1-3)[Gal(b1-3)GlcNAc(b1-2)Man(a1-6)]Man(b1-4)GlcNAc(b1-4)GlcNAc
# Summary of the method: as §1
# [9] = biological target: Gal(b1-3)GlcNAc(b1-2)Man(a1-3)[Gal(b1-3)GlcNAc(b1-2)Man(a1-6)]Man(b1-4)GlcNAc(b1-4)[Fuc(a1-6)]GlcNAc
# Summary of the method: as §1
# [10] = biological target: Gal(b1-3)GlcNAc(b1-2)[Gal(b1-3)GlcNAc(b1-6)]Man(a1-6)[Gal(b1-3)GlcNAc(b1-2)Man(a1-3)]Man(b1-4)GlcNAc(b1-4)GlcNAc
# Summary of the method: as §1
# [11] = biological target: Gal(b1-3)GlcNAc(b1-3)Gal(b1-3)GlcNAc
# Summary of the method: as §1
# [12] = biological target: Gal(b1-3)GlcNAc(b1-3)Gal(b1-4)Glc
# Summary of the method: as §1
# [13] = biological target: Gal(b1-3)GlcNAc(b1-3)Gal(b1-4)GlcNAc
# Summary of the method: as §1
# [14] = biological target: Gal(b1-3)GlcNAc(b1-3)Gal(b1-4)GlcNAc(b1-6)[Gal(b1-3)GlcNAc(b1-3)]Gal(b1-4)Glc
# Summary of the method: as §1
# [15] = biological target: Gal(b1-3)GlcNAc(b1-3)Gal(b1-4)[Fuc(a1-3)]GlcNAc(b1-6)[Gal(b1-3)GlcNAc(b1-3)]Gal(b1-4)Glc
# Summary of the method: as §1
# [16] = biological target: Gal(b1-3)GlcNAc(b1-3)GalNAc
# Summary of the method: as §1
# [17] = biological target: Gal(b1-3)GlcNAc(b1-6)Gal(b1-4)GlcNAc
# Summary of the method: as §1
# [18] = biological target: Gal(b1-3)[Fuc(a1-4)]GlcNAc
# Summary of the method: as §1
# [19] = biological target: Gal(b1-3)[Fuc(a1-4)]GlcNAc(b1-2)Man(a1-3)[Gal(b1-3)[Fuc(a1-4)]GlcNAc(b1-2)Man(a1-6)]Man(b1-4)GlcNAc(b1-4)GlcNAc
# Summary of the method: as §1
# [20] = biological target: Gal(b1-3)[Fuc(a1-4)]GlcNAc(b1-2)Man(a1-3)[Gal(b1-3)[Fuc(a1-4)]GlcNAc(b1-2)Man(a1-6)]Man(b1-4)GlcNAc(b1-4)[Fuc(a1-6)]GlcNAc
# Summary of the method: as §1
# [21] = biological target: Gal(b1-3)[Fuc(a1-4)]GlcNAc(b1-3)Gal(b1-3)[Fuc(a1-4)]GlcNAc
# Summary of the method: as §1
# [22] = biological target: Gal(b1-3)[Fuc(a1-4)]GlcNAc(b1-3)Gal(b1-4)GlcNAc
# Summary of the method: as §1
# [23] = biological target: Gal(b1-3)[Fuc(a1-4)]GlcNAc(b1-3)Gal(b1-4)[Fuc(a1-3)]GlcNAc
# Summary of the method: as §1
# [24] = biological target: Gal(b1-3)[GlcNAc(b1-6)]GalNAc
# Summary of the method: as §1
# [25] = biological target: Gal(b1-3)[Neu5Ac(a2-6)]GalNAc
# Summary of the method: as §1
# [26] = biological target: Gal(b1-3)[Neu5Ac(a2-6)]GlcNAc(b1-6)Gal(b1-4)Glc
# Summary of the method: as §1
# [27] = biological target: Gal(b1-3)[Neu5Ac(b2-6)]GalNAc
# Summary of the method: as §1
# Gal(b1-4)Gal = biological target: Gal(b1-4)Gal
# Summary of the method: as §1
# [28] = biological target: Gal(b1-4)GalNAc(a1-3)[Fuc(a1-2)]Gal(b1-4)GlcNAc
# Summary of the method: as §1
# [29] = biological target: Gal(b1-4)GalNAc(b1-3)[Fuc(a1-2)]Gal(b1-4)GlcNAc
# Summary of the method: as §1
# Gal(b1-4)Glc = biological target: Gal(b1-4)Glc
# Summary of the method: as §1
# Gal(b1-4)Glc6S = biological target: Gal(b1-4)Glc6S
# Summary of the method: as §1
# Gal(b1-4)GlcNAc = biological target: Gal(b1-4)GlcNAc
# Summary of the method: as §1
# [30] = biological target: Gal(b1-4)GlcNAc(a1-6)Gal(b1-4)GlcNAc
# Summary of the method: as §1
# Gal(b1-4)GlcNAc(b1-2)Man = biological target: Gal(b1-4)GlcNAc(b1-2)Man
# Summary of the method: as §1
# [31] = biological target: Gal(b1-4)GlcNAc(b1-2)Man(a1-3)Man(b1-4)GlcNAc(b1-4)GlcNAc
# Summary of the method: as §1
binder,measurement,setting,value
B1,glycan array binding signal (z-score),[1],0.187
same,glycan array binding signal (z-score),Gal(b1-3)GalNAc,-0.002
same,glycan array binding signal (z-score),[2],-0.573
same,glycan array binding signal (z-score),[3],0.269
same,glycan array binding signal (z-score),[4],0.257
same,glycan array binding signal (z-score),[5],-0.678
same,glycan array binding signal (z-score),[6],1.07
same,glycan array binding signal (z-score),Gal(b1-3)GlcNAc,-0.339
same,glycan array binding signal (z-score),[7],0.141
same,glycan array binding signal (z-score),[8],-0.33
same,glycan array binding signal (z-score),[9],0.987
same,glycan array binding signal (z-score),[10],0.926
same,glycan array binding signal (z-score),[11],-0.011
same,glycan array binding signal (z-score),[12],-0.936
same,glycan array binding signal (z-score),[13],0.648
same,glycan array binding signal (z-score),[14],0.317
same,glycan array binding signal (z-score),[15],0.9
same,glycan array binding signal (z-score),[16],-0.212
same,glycan array binding signal (z-score),[17],-0.399
same,glycan array binding signal (z-score),[18],-0.366
same,glycan array binding signal (z-score),[19],-0.309
same,glycan array binding signal (z-score),[20],0.633
same,glycan array binding signal (z-score),[21],0.689
same,glycan array binding signal (z-score),[22],0.334
same,glycan array binding signal (z-score),[23],1.03
same,glycan array binding signal (z-score),[24],-0.071
same,glycan array binding signal (z-score),[25],-0.132
same,glycan array binding signal (z-score),[26],-0.73
same,glycan array binding signal (z-score),[27],0.311
same,glycan array binding signal (z-score),Gal(b1-4)Gal,-0.926
same,glycan array binding signal (z-score),[28],0.031
same,glycan array binding signal (z-score),[29],-0.207
same,glycan array binding signal (z-score),Gal(b1-4)Glc,-0.062
same,glycan array binding signal (z-score),Gal(b1-4)Glc6S,-0.305
same,glycan array binding signal (z-score),Gal(b1-4)GlcNAc,0.494
same,glycan array binding signal (z-score),[30],0.378
same,glycan array binding signal (z-score),Gal(b1-4)GlcNAc(b1-2)Man,0.468
same,glycan array binding signal (z-score),[31],-0.452

# Reformatted tab-delimited: part of the list above
binder	measurement	setting	value
B1	glycan array binding signal (z-score)	[4]	0.257
same	glycan array binding signal (z-score)	[26]	-0.73
same	glycan array binding signal (z-score)	[29]	-0.207
